Measurements from PMC5382584, “In search of tail-anchored protein machinery in plants: reevaluating the role of arsenite transporters” (Scientific Reports, 2017).
These are yes or no findings as the source states them, for the method shown. Binding seen in cells or lysates may run through a third protein. Binding can be weak; no strength is given. Where a sequence is shown, tags or fusion partners need not be part of it.

Biological target: Cr-Sec61β (C. reinhardtii Sec61β) with a C-terminal His-tag (C. reinhardtii)
Assay: pull-down; co-expression in E. coli BL21 (DE3) of untagged ArsA protein (pET21) with C-terminally His-tagged TA protein (pET28); IMAC (Ni-NTA) co-purification from the soluble lysate, washes with 50 and 100 mM imidazole, elution with 250 mM imidazole, SDS-PAGE; bands confirmed by mass spectrometry for Cr-ArsA1/Cr-TOC34-NTC

binding: binds
B1: Cr-ArsA2 (C. reinhardtii ArsA2), recombinant, purified (natural protein, UniProt A8IXB8 1-362, looked up)
chain: MAADMPDPTLQNVVDQKELKWIFVGGKGGVGKTTTSSSLAVALAESGTRNRVLIISTDPAHNLSDAFRQKFTKTPTLVNGFTNLFAMEVDPQPDIGEMEQLEWAQDSFLTELAGSIPGIDEAMSFAEVMKQVQTMDYDTIVFDTAPTGHTLRLLNFPTILEKGLSKLVALKGAMGGMMGQVTRMLGGMAGGGEGAADLPDQLLGKVEGMLDVVRKVSAQFKDPLLTTFVAVCIPEFLSLYETERLVQELAKFEIDCRNIVINQIIFPESVGGSRLLDARVRMQQKYLDQFYELYEDFHILQLPLLEEEVRGPEALKAFAVNLLKPYVPAPPTDAAARQAALVSEVAALKKRVAELEAALAKK
notes: ArsA2 of Chlamydomonas reinhardtii, full-length open reading frame, one ATPase domain; pET21 modified with a TEV site between the N-terminal 6His-tag and the polylinker; Seen as dimers and tetramers; also called Dimeric Cr-ArsA2; arsenite transporter ArsA2; source: E. coli BL21 (DE3), purified (Ni-NTA, size-exclusion chromatography)
